Data reported in the supplement of paper PMC10849652.
The list shows a part of the results.

Protein sequences, listed by entry. Tags and fused reporters are not part of them. Lines headed by an entry give the natural chain unless they say otherwise; changes in a name come on top.
UniProt Q9NX74: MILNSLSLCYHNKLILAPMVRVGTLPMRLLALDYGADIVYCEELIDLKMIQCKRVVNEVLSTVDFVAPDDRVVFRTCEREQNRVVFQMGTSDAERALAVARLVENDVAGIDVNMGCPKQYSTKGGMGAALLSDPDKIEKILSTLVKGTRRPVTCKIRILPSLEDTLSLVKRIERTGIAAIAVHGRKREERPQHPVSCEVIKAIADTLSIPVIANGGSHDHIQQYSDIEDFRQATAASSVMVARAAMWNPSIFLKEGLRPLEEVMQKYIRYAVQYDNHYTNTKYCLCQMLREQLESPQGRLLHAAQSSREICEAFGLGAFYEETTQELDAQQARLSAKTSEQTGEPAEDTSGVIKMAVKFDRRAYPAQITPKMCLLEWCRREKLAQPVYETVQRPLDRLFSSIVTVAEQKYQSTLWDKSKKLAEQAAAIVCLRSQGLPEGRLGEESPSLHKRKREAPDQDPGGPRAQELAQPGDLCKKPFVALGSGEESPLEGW
UniProt Q8TEA8: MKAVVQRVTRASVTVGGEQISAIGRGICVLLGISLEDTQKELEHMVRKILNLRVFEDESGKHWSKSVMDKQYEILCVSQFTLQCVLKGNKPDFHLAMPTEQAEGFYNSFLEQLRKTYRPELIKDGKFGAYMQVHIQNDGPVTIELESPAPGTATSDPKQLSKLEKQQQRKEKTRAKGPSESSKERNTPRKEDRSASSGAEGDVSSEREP
UniProt Q99848: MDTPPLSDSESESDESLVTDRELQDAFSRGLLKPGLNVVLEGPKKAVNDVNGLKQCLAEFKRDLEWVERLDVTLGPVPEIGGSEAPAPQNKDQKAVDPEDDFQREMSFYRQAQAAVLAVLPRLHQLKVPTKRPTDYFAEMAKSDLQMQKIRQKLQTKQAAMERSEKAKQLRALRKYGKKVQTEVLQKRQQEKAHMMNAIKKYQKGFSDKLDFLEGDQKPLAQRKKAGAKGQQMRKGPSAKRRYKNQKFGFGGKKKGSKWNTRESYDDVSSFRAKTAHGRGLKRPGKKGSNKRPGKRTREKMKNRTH
UniProt Q5QJE6: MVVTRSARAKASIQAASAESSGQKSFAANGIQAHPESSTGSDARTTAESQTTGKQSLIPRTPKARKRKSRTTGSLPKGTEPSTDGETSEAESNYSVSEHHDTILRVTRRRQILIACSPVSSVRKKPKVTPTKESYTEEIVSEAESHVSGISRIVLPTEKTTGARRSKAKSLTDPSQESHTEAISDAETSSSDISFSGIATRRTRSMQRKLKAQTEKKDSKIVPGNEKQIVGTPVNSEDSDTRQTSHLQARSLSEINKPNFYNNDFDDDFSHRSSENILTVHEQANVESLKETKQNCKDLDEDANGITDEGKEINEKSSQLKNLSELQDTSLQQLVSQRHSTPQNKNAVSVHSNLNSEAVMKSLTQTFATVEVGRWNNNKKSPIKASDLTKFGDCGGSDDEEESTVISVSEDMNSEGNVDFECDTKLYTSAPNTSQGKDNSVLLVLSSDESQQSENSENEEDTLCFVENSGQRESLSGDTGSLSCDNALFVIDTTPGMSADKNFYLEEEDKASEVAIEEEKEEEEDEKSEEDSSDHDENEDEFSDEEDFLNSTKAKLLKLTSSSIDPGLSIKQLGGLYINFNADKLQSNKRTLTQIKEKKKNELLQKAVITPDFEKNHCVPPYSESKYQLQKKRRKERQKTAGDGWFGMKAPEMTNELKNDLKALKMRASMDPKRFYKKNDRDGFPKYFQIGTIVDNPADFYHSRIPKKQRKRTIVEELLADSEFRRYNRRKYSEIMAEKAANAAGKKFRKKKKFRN
UniProt Q9H2P9: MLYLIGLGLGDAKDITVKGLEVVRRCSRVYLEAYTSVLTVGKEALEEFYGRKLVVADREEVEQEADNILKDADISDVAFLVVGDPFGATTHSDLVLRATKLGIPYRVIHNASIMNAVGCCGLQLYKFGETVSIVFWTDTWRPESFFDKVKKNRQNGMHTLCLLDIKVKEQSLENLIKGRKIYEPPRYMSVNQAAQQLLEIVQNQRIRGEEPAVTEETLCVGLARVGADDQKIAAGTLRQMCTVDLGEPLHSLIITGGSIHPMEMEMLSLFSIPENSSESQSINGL
UniProt Q8N5C7: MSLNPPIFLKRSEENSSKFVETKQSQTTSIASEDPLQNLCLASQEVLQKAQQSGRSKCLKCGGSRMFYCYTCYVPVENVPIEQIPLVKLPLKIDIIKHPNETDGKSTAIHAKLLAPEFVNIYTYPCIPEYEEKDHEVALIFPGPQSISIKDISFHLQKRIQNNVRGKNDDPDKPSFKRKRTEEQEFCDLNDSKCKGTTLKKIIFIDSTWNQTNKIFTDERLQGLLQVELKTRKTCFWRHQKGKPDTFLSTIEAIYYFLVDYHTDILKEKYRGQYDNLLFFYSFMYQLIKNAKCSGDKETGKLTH
UniProt Q6P2E9: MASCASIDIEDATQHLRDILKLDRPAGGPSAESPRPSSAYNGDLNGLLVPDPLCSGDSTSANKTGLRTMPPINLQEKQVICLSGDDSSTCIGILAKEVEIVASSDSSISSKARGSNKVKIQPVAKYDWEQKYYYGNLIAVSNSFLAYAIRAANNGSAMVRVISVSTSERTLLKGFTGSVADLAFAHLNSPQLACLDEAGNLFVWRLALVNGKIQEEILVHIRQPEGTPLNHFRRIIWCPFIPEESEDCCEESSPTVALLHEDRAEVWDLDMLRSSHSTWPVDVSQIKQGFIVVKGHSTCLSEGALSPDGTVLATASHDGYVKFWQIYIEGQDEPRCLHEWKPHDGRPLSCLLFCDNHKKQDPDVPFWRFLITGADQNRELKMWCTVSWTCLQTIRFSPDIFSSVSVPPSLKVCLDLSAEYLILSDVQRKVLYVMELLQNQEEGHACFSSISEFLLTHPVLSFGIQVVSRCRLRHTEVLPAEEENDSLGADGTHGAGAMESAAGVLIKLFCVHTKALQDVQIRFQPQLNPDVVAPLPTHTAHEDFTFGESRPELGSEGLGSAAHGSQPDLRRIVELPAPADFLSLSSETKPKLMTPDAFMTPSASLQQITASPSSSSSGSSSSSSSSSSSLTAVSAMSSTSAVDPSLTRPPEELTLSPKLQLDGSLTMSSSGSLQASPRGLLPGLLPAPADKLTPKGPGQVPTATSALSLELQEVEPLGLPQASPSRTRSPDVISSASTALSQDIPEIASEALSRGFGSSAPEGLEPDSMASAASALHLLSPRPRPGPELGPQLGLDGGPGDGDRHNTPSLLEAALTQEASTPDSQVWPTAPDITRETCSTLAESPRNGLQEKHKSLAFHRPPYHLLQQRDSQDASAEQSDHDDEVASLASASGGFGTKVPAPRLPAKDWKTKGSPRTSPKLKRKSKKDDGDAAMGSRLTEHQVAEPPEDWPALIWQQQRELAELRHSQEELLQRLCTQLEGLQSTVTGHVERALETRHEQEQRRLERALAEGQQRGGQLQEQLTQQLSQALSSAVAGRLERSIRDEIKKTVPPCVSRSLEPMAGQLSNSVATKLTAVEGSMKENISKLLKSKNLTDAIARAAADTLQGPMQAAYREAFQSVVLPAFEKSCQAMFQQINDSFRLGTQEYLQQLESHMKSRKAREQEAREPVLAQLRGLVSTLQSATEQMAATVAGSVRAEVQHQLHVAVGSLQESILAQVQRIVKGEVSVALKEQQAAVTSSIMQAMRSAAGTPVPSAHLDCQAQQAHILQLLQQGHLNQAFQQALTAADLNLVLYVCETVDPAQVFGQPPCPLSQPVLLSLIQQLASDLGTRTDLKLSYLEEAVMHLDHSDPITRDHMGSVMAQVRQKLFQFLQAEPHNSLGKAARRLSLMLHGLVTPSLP
UniProt P23919: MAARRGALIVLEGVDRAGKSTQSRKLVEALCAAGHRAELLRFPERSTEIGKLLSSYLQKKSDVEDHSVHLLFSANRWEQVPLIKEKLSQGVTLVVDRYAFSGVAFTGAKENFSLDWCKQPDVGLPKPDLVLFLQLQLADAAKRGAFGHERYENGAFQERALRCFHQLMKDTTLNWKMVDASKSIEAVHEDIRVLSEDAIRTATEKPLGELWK
UniProt Q13409, whole entry, looked up: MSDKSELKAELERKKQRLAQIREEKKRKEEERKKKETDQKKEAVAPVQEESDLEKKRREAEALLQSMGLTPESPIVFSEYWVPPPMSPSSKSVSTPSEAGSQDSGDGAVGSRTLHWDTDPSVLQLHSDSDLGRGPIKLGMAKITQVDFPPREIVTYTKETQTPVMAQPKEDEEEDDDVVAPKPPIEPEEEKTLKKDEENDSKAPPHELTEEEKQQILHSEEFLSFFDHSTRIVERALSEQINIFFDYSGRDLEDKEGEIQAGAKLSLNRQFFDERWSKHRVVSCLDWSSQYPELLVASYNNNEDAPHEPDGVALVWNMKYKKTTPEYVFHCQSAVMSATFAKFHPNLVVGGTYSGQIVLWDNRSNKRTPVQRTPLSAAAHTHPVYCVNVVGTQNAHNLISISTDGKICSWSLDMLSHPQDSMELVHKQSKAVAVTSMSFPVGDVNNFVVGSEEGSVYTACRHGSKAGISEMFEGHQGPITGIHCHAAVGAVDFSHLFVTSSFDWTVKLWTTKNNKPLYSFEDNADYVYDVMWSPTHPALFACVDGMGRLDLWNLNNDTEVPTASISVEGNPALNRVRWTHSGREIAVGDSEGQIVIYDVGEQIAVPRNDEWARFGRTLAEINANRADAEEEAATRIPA
UniProt Q13011: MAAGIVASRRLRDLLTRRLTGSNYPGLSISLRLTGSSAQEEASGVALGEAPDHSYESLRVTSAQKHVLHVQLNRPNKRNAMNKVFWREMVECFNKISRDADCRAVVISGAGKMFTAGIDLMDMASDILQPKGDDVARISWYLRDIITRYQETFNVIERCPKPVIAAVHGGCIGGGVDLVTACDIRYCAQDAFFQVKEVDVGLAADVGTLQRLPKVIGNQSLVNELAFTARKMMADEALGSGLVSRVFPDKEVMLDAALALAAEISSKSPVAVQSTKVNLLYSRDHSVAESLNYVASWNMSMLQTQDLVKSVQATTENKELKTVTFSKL
UniProt Q96EV8: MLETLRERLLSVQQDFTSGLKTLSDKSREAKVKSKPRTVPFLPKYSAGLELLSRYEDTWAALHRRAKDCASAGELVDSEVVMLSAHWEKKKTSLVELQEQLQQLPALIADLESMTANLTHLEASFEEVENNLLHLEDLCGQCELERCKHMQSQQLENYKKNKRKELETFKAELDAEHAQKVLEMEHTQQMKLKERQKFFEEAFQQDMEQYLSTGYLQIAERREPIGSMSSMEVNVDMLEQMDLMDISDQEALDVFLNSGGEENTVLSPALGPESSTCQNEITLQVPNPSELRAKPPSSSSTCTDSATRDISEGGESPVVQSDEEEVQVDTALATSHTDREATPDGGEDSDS
UniProt Q99615: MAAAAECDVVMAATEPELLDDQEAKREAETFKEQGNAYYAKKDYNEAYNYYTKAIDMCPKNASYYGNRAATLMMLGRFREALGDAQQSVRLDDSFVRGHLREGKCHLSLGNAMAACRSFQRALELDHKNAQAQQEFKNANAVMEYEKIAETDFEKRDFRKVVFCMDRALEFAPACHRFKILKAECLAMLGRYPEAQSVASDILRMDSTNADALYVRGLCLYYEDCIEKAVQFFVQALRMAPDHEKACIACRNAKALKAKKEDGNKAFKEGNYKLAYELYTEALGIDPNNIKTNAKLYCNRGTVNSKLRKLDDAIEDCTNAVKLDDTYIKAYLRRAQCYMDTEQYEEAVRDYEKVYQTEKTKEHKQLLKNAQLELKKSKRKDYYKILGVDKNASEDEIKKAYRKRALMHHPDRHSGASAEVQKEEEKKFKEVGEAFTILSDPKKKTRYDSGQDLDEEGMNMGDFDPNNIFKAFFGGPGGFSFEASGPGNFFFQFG
UniProt Q9Y295: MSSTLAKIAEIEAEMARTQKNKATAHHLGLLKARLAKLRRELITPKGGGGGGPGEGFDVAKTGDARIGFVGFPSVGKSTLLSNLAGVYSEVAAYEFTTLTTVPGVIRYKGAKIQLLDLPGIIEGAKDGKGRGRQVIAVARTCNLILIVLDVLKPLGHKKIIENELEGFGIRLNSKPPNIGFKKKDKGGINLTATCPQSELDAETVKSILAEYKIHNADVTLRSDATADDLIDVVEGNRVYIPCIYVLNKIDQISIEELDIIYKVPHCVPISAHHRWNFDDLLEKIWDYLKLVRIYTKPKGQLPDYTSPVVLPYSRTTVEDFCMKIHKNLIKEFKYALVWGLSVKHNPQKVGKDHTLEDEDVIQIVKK
UniProt Q8NBA8: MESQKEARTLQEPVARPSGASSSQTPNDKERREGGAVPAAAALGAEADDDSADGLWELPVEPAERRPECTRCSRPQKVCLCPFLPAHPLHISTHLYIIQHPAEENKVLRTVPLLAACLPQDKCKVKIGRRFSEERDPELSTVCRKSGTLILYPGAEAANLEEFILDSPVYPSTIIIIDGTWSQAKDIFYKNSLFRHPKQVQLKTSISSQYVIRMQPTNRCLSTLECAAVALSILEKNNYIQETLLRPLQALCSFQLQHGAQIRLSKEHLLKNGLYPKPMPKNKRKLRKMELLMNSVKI
UniProt Q96DA6: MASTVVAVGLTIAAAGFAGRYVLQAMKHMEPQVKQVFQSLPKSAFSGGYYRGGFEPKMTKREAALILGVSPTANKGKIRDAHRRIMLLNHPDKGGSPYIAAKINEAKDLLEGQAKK

What was measured:
Test in all cases: log2 fold change, soluble protein after heating vs DMSO (PISA); higher = thermal stabilisation; K562 cells, 10 uM, 30 min; active = over 0.2 and 3.5 SD of the protein, either way, in both replicates (recomputed)
[1] = compound: NC(=O)Nc1cc(-c2cccc(F)c2)sc1C(=O)N[C@H]1CCCNC1
How it was run: (§1)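 Soluble protein was quantified by TMTpro 16plex LC-MS/MS after channel sums were equalised. It was obtained as the supernatant after 21,000xg for 90 min from pooled aliquots of K562 cells (2×10^6 cells/mL, 10 μM compound, 30 min) heated for 3 min across 48°C-58°C and extracted in PBS with 0.5% NP-40 at 4°C. Thermal stability values are relative to control samples and come from duplicates. They are given as log2 fold changes.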

[2] = compound: NC(=O)c1cnc(N[C@@H]2CCCC[C@@H]2N)nc1Nc1cccc(-n2nccn2)c1
How it was run: as §1

[3] = compound: NC1(c2ccc(-c3nc4ccn5c(=O)[nH]nc5c4cc3-c3ccccc3)cc2)CCC1
How it was run: as §1

[4] = compound: NCC(=O)Nc1ccc(-n2nc(C(F)(F)F)cc2-c2ccc3c(ccc4ccccc43)c2)cc1
How it was run: as §1

entinostat = compound: Nc1ccccc1NC(=O)c1ccc(CNC(=O)OCc2cccnc2)cc1 [entinostat]
How it was run: as §1

vorinostat = compound: O=C(CCCCCCC(=O)Nc1ccccc1)NO [vorinostat]
How it was run: as §1

citarinostat = compound: O=C(CCCCCCNC(=O)c1cnc(N(c2ccccc2)c2ccccc2Cl)nc1)NO [citarinostat]
How it was run: as §1

silmitasertib = compound: O=C(O)c1ccc2c(c1)nc(Nc1cccc(Cl)c1)c1ccncc12 [silmitasertib]
How it was run: as §1

[5] = compound: O=C1NC(=O)C(c2cnc3ccccn23)=C1c1cn2c3c(cc(F)cc13)CN(C(=O)N1CCCCC1)CC2
How it was run: as §1

[6] = compound: c1cc(OCCN2CCCCC2)cc(-c2n[nH]c3ccc(-c4nnc[nH]4)cc23)c1
How it was run: as §1

entospletinib = compound: c1cn2cc(-c3ccc4cn[nH]c4c3)nc(Nc3ccc(N4CCOCC4)cc3)c2n1 [entospletinib]
How it was run: as §1

Target | log2 fold change [1] | log2 fold change [2] | log2 fold change [3] | log2 fold change [4] | log2 fold change (entinostat) | log2 fold change (vorinostat) | log2 fold change (citarinostat) | log2 fold change (silmitasertib) | log2 fold change [5] | log2 fold change [6] | log2 fold change (entospletinib)
DUS2 (UniProt Q9NX74) | inactive: 0.051 | inactive: -0.066 | inactive: -0.091 | inactive: -0.004 | inactive: 0.008 | inactive: 0.041 | inactive: 0.124 | inactive: 0.092 | active: -0.424 | inactive: 0.038 | 
DTD1 (UniProt Q8TEA8) | inactive: 0.008 | inactive: -0.033 | inactive: -0.007 | inactive: 0.045 | inactive: -0.02 | inactive: 0.104 | inactive: 0.006 | inactive: -0.044 | inactive: -0.007 | inactive: 0.024 | inactive: -0.01
DYNC1LI2 (UniProt O43237) | inactive: 0.093 | inactive: -0.021 | inactive: 0.206 | inactive: -0.075 | inactive: -0.026 | inactive: 0.075 | inactive: -0.101 | inactive: 0.214 | inactive: 0.158 | inactive: -0.108 | 
E2F4 (UniProt Q16254) | inactive: 0.004 | inactive: -0.052 | inactive: -0.105 | inactive: -0.032 | inactive: 0.016 | inactive: -0.052 | inactive: 0.067 | inactive: 0.001 | inactive: 0.015 | inactive: 0.005 | 
DOHH (UniProt Q9BU89) | inactive: 0.043 | inactive: 0.056 | inactive: 0.278 | inactive: 0.009 | inactive: -0.106 | inactive: -0.04 | inactive: 0.017 | inactive: 0.047 | inactive: 0.153 | inactive: 0.283 | 
ECPAS (UniProt Q5VYK3) | inactive: -0.009 | inactive: -0.024 | inactive: -0.169 | inactive: -0.035 | inactive: 0.073 | inactive: 0.077 | inactive: 0.08 | inactive: 0.071 | inactive: -0.038 | inactive: -0.032 | 
DNAJB12 (UniProt Q9NXW2) | inactive: -0.03 | inactive: -0.018 | inactive: -0.048 | inactive: -0.029 | inactive: 0.001 | inactive: 0.027 | inactive: 0.027 | inactive: 0.079 | inactive: -0.038 | inactive: 0.002 | 
DUS3L (UniProt Q96G46) | inactive: 0.113 | inactive: -0.012 | inactive: 0.194 | inactive: 0.003 | inactive: 0.003 | inactive: 0.093 | inactive: 0.058 | inactive: 0.112 | inactive: -0.176 | inactive: -0.029 | 
EBNA1BP2 (UniProt Q99848) | inactive: 0.05 | inactive: 0.006 | inactive: 0.195 | inactive: 0.158 | inactive: -0.029 | inactive: 0.133 | inactive: 0.041 | inactive: 0.151 | inactive: 0.352 | inactive: -0.292 | 
DNTTIP2 (UniProt Q5QJE6) | inactive: 0.14 | inactive: -0.054 | inactive: 0.155 | inactive: 0.029 | inactive: -0.03 | inactive: 0.045 | inactive: 0.016 | inactive: 0.102 | inactive: -0.028 | inactive: -0.095 | 
DPH5 isoform 5 (UniProt Q9H2P9) | inactive: -0.036 | inactive: -0.005 | inactive: 0.209 | inactive: -0.003 | inactive: -0.018 | inactive: -0.009 | inactive: 0.017 | inactive: -0.008 | inactive: 0.109 | inactive: 0.038 | 
DTWD1 (UniProt Q8N5C7) | inactive: -0.001 | inactive: 0.014 | inactive: -0.147 | inactive: -0.04 | inactive: 0.063 | active: 0.246 | inactive: -0.001 | inactive: -0.004 | inactive: 0.014 | inactive: -0.064 | 
EDC4 (UniProt Q6P2E9) | inactive: -0.06 | inactive: -0.024 | inactive: -0.026 | inactive: -0.082 | inactive: 0.026 | inactive: -0.023 | inactive: 0.035 | inactive: -0.05 | inactive: -0.066 | active: -0.253 | 
EEA1 (UniProt Q15075) | inactive: 0.013 | inactive: -0.014 | inactive: 0.006 | inactive: -0.014 | inactive: -0.023 | inactive: 0.004 | inactive: -0.001 | inactive: 0.015 | inactive: 0.006 | inactive: -0.043 | 
DTYMK (UniProt P23919) | inactive: 0.005 | inactive: -0.011 | inactive: -0.169 | inactive: -0.014 | inactive: -0.035 | inactive: 0.043 | inactive: 0.047 | inactive: -0.04 | inactive: -0.058 | inactive: -0.071 | 
DYNC1I2 isoform 5 (UniProt Q13409) | inactive: -0.021 | inactive: -0.016 | inactive: -0.023 | inactive: 0.059 | inactive: -0.018 | inactive: -0.044 | inactive: 0.015 | inactive: 0.004 | inactive: -0.012 | inactive: 0.004 | 
DNAJC1 (UniProt Q96KC8) | inactive: 0.013 | inactive: -0.055 | inactive: -0.082 | inactive: -0.08 | inactive: 0.042 | inactive: 0.106 | inactive: 0.017 | inactive: 0.01 | inactive: -0.016 | inactive: -0.083 | 
ECH1 (UniProt Q13011) | inactive: 0 | inactive: -0.101 | inactive: 0.295 | inactive: -0.078 | inactive: -0.025 | inactive: -0.015 | inactive: 0.002 | inactive: -0.072 | inactive: -0.076 | inactive: 0.038 | 
DYRK1A isoform 2 (UniProt Q13627) | active: -0.225 | inactive: -0.034 | inactive: -0.115 | inactive: -0.064 | inactive: 0.028 | inactive: 0.056 | inactive: 0 | active: -0.292 | inactive: -0.029 |  | 
DOCK8 (UniProt Q8NF50) | inactive: -0.088 | inactive: 0.073 | inactive: 0.461 | inactive: 0.036 | inactive: 0.079 | inactive: 0.031 | inactive: 0.064 | inactive: 0.254 | inactive: -0.12 | inactive: 0.07 | 
DPYSL2 (UniProt Q16555) | inactive: 0.053 | inactive: 0.01 | inactive: 0.014 | inactive: -0.056 | inactive: -0.037 | inactive: 0.276 | inactive: -0.017 | inactive: -0.118 | inactive: -0.224 | inactive: -0.054 | 
DTNBP1 (UniProt Q96EV8) | inactive: -0.022 | inactive: -0.011 | inactive: -0.038 | inactive: -0.063 | inactive: 0.033 | inactive: 0.091 | inactive: -0.001 | inactive: -0.013 | inactive: -0.032 | inactive: -0.042 | 
DNAJC7 (UniProt Q99615) | inactive: -0.067 | inactive: -0.029 | inactive: -0.204 | inactive: -0.071 | inactive: 0.05 | inactive: 0.043 | inactive: 0.071 | inactive: 0.001 | inactive: -0.03 | inactive: -0.001 | 
DRG1 (UniProt Q9Y295) | inactive: -0.089 | inactive: -0.035 | inactive: 0.071 | inactive: 0 | inactive: -0.032 | inactive: -0.017 | inactive: -0.029 | inactive: 0.049 | inactive: 0.016 | inactive: -0.085 | inactive: 0.042
DPF2 (UniProt Q92785) | inactive: -0.064 | inactive: -0.09 | inactive: -0.014 | inactive: 0.024 | inactive: -0.061 | inactive: 0.049 | inactive: 0.054 | inactive: 0.022 | inactive: -0.124 | inactive: -0.02 | inactive: 0.014
DTWD2 (UniProt Q8NBA8) | inactive: 0.284 | inactive: -0.03 | inactive: -0.058 | inactive: 0.068 | inactive: -0.079 | inactive: 0 | inactive: 0.152 | inactive: 0.089 | inactive: 0.26 | inactive: -0.123 | 
DNAJC19 (UniProt Q96DA6) | inactive: -0.014 | inactive: 0.004 | inactive: -0.017 | inactive: -0.006 | inactive: 0.004 | inactive: -0.03 | inactive: 0.024 | inactive: -0.018 | inactive: 0.01 | inactive: -0.015 | 

Exported as tab-separated lines: part of the list above.
Target	log2 fold change [1]	log2 fold change [2]	log2 fold change [3]	log2 fold change [4]	log2 fold change (entinostat)	log2 fold change (vorinostat)	log2 fold change (citarinostat)	log2 fold change (silmitasertib)	log2 fold change [5]	log2 fold change [6]	log2 fold change (entospletinib)
DRG1 (UniProt Q9Y295)	inactive: -0.089	inactive: -0.035	inactive: 0.071	inactive: 0	inactive: -0.032	inactive: -0.017	inactive: -0.029	inactive: 0.049	inactive: 0.016	inactive: -0.085	inactive: 0.042
DPF2 (UniProt Q92785)	inactive: -0.064	inactive: -0.09	inactive: -0.014	inactive: 0.024	inactive: -0.061	inactive: 0.049	inactive: 0.054	inactive: 0.022	inactive: -0.124	inactive: -0.02	inactive: 0.014
